Taken from: PubChem BioAssay AID504774 (Drosophila RNAi Screening Center, 2011)
Assay: 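Knock-downs that shift viability of MMS-exposed cells relative to untreated ones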 (primary screen). Cells: Drosophila Kc167 cells. Knock-down reagent: long dsRNA against Drosophila genes, about 0.25 µg dsRNA per well. Time to read-out: about 6 days: 3 days knock-down, then 3 days with or without MMS. Conditions: methyl methanesulphonate 0.004% (w/v) for 3 days after knock-down. Measurement: 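ATP-dependent luminescence as a measure of live cells in MMS-exposed wells, quantile normalised within each plate, with replicate values also given as a mean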. Direction: mean viability with MMS and viability with MMS: higher = more surviving cells after MMS.
The screen tested about 23,000 reagents; below is an unselected part of those with a known target gene and a result. 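Values are quantile-normalised luminescence on an arbitrary scale; higher means more cells surviving MMS.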 Names joined by + are all predicted targets of the reagent. Not all columns of the deposit are shown.

What is on record for CG31751 (GeneID 35118) [DRSC02464]?
mean viability with MMS: 3.49e6; viability with MMS, replicate 1: 3.92e6

What is on record for CG31751 (GeneID 35118) [DRSC02465]?
mean viability with MMS: 3.40e6; viability with MMS, replicate 1: 3.92e6

What did the screen give for stumps (GeneID 41770) [DRSC13045]?
mean viability with MMS: 3.68e6; viability with MMS, replicate 1: 4.09e6

For stumps (GeneID 41770) [DRSC15332], how do the results read?
mean viability with MMS: 3.35e6; viability with MMS, replicate 1: 3.82e6

What is on record for stumps (GeneID 41770) [DRSC17073]?
mean viability with MMS: 3.54e6; viability with MMS, replicate 1: 3.99e6

What did the screen give for CG15927 (GeneID 32193) [DRSC19742]?
mean viability with MMS: 3.46e6; viability with MMS, replicate 1: 3.84e6

What is on record for Or7a (GeneID 31750) [DRSC18691]?
mean viability with MMS: 3.57e6; viability with MMS, replicate 1: 4.15e6

What did the screen give for CG7329 (GeneID 34457) [DRSC03046]?
mean viability with MMS: 3.41e6; viability with MMS, replicate 1: 4.02e6

What is on record for CG18404 (GeneID 43603) [DRSC15323]?
mean viability with MMS: 3.68e6; viability with MMS, replicate 1: 4.06e6

With mthl11 (GeneID 117467) [DRSC12779], what was measured?
mean viability with MMS: 3.42e6; viability with MMS, replicate 1: 3.96e6

What is on record for ScsbetaG (GeneID 44001) [DRSC11294]?
mean viability with MMS: 3.45e6; viability with MMS, replicate 1: 3.92e6

Which result is listed for CG9410 + CG15908 [DRSC04976]?
mean viability with MMS: 3.30e6; viability with MMS, replicate 1: 3.71e6

Which result is listed for CG9410 + CG15908 [DRSC05001]?
mean viability with MMS: 3.49e6; viability with MMS, replicate 1: 4.07e6

How did the screen score CG30026 (GeneID 246399) [DRSC05276]?
mean viability with MMS: 3.55e6; viability with MMS, replicate 1: 3.98e6

For ast (GeneID 33282) [DRSC00803], what does the deposit list?
mean viability with MMS: 3.58e6; viability with MMS, replicate 1: 4.01e6

What is on record for CG14247 (GeneID 43221) [DRSC14742]?
mean viability with MMS: 3.62e6; viability with MMS, replicate 1: 4.15e6

With Itpr (GeneID 40664) [DRSC12354], how do the results read?
mean viability with MMS: 3.53e6; viability with MMS, replicate 1: 4.04e6

With Crz (GeneID 41742) [DRSC16615], what does the deposit list?
mean viability with MMS: 3.70e6; viability with MMS, replicate 1: 4.15e6

With CG11019 (retired record) (GeneID 50472) [DRSC02117], how do the results read?
mean viability with MMS: 3.51e6; viability with MMS, replicate 1: 3.85e6

How did the screen score Ir11a (GeneID 32189) [DRSC19699]?
mean viability with MMS: 3.46e6; viability with MMS, replicate 1: 3.92e6

With Ir51b (GeneID 246442) [DRSC05540], what was measured?
mean viability with MMS: 3.62e6; viability with MMS, replicate 1: 4.07e6

What is on record for CG17778 (GeneID 30996) [DRSC18504]?
mean viability with MMS: 3.78e6; viability with MMS, replicate 1: 4.23e6

What is on record for Obp85a (GeneID 41006) [DRSC14362]?
mean viability with MMS: 3.49e6; viability with MMS, replicate 1: 4.03e6

How did the screen score CG4660 (GeneID 31542) [DRSC18378]?
mean viability with MMS: 3.55e6; viability with MMS, replicate 1: 4.11e6

Taken from above.
For “mean viability with MMS”, Obp85a (GeneID 41006) [DRSC14362] is entered as 3.49e6
Entry for CG4660 (GeneID 31542) [DRSC18378] under “viability with MMS, replicate 1”: 4.11e6
For “viability with MMS, replicate 1”, mthl11 (GeneID 117467) [DRSC12779] shows 3.96e6
CG30026 (GeneID 246399) [DRSC05276], viability with MMS, replicate 1: 3.98e6
